Counter-ions that a name gives are not always drawn. The list shows a part of the results. Most values lie at the level of the controls, where differences are scatter.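 A single-replicate pilot screen of approved drugs and clinical or known-target compounds measured melting temperature via differential scanning fluorimetry. Top stabilizing hits raised the melting point by 2 °C or more; negative shifts indicate destabilization.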
System: SARS-CoV-2 main protease (Mpro, nsp5)
Assay: thermal shift ΔTm of Mpro relative to plate average Tm; higher = stronger thermal stabilization of Mpro (binding)
Conditions: 10 µM; protein concentration 1 µM

| SMILES | thermal shift ΔTm of Mpro [°C] |
| --- | --- |
| C[C@@H](O)[C@H]1C(=O)N2C(C(=O)OCOC(=O)C(C)(C)C)=C(SC3CN(C4=NCCS4)C3)[C@H](C)[C@H]12 [Tebipenem Pivoxil] | -0.153 |
| CCCCOc1ccc(OCCCN2CCOCC2)cc1 [Pramoxine HCl] | -0.125 |
| CCOC(=O)C1=C(C)NC(C)=C(C(=O)OC)C1c1cccc([N+](=O)[O-])c1 (stereo not given) [Nitrendipine] | -0.132 |
| O=c1oc2ccc(O)cc2c2c1NCCC2 | 0.0523 |
| CC(C)C[C@H](NC(=O)CNC(=O)c1cc(Cl)ccc1Cl)B1OC(=O)CC(CC(=O)O)(C(=O)O)O1 (stereo not given in full) | 0.37 |
| Nc1nc(NCCNc2ncc(-c3ncc[nH]3)c(-c3ccc(Cl)cc3Cl)n2)ccc1[N+](=O)[O-] | 0.126 |
| CN(C(=O)/C=C/c1ccoc1)[C@@H]1CC[C@@]2(O)[C@H]3Cc4ccc(O)c5c4[C@@]2(CCN3CC2CC2)[C@H]1O5 [Nalfurafine hydrochloride] | 0.186 |
| COC1(c2sc3c(N4CCOCC4)nc(-c4cnc(N)nc4)nc3c2C)COC1 | -0.0315 |
| C[C@]12CC[C@H](O)CC1=CC[C@@H]1[C@@H]2CC[C@]2(C)C(=O)CC[C@@H]12 [Dehydroepiandrosterone (DHEA)] | -0.118 |
| CCn1cc(C(=O)O)c(=O)c2cc(F)c(N3CCNCC3)cc21 [Norfloxacin] | 0.0838 |
| OC[C@H]1O[C@@H](O[C@H]2[C@H](O)[C@@H](O)C(O)O[C@@H]2CO)[C@H](O)[C@@H](O)[C@H]1O (mixture of isomers) [Lactose] | 0.21 |
| FC(F)(F)c1ccccc1-c1nc(NCc2cccs2)c2ccccc2n1 | -0.172 |
| CCc1c(-c2ccccc2)c(-c2ccccc2)nn1-c1ccccc1-c1cccc(OCC(=O)O)c1 | -0.367 |
| O=C(c1ccc(OCCN2CCCCC2)cc1)c1c(-c2ccc(O)cc2)sc2cc(O)ccc12 [Raloxifene HCl] | 0.00841 |
| O=C1c2ccccc2-c2n[nH]c3cccc1c23 | 0.224 |
| CCOC(=O)c1c(C)[nH]c(C=C2C(=O)Nc3ccccc32)c1C [VEGFR2 KiN/Ase Inhibitor I] | -0.391 |
| CNC(=O)c1ccc(N2C(=S)N(c3cnc(C#N)c(C(F)(F)F)c3)C(=O)C23CCC3)cc1F | -0.0621 |
| CNC(=O)c1ccccc1Sc1ccc2c(/C=C/c3ccccn3)n[nH]c2c1 [Axitinib] | -0.169 |
| Cc1ccc(NC(=O)Nc2cc(C(F)(F)F)ccc2F)cc1Nc1ccc2c(c1)NC(=O)/C2=C\c1ccc[nH]1 | 1.44 |
| CC(CN1c2ccccc2Sc2ccccc21)N(C)C (stereo not given) [Promethazine] | 0.149 |
| CC(CN1c2ccccc2Sc2ccccc21)N(C)C (stereo not given) [Promethazine HCl] | -0.104 |
| Fc1ccc2[nH]ccc2c1-c1nc(N2CCOCC2)c2sc(CN3CCN(CC4CC4)CC3)cc2n1 | -0.301 |
| CCOc1cc(N2CCC(O)CC2)ccc1Nc1ncc2c(n1)N(C)c1ccccc1C(=O)N2C | -0.522 |
| S=C=Nc1cccc(NC(=S)NCCCCNC(=S)Nc2cccc(N=C=S)c2)c1 | 0.985 |
| c1cncc(-c2cn[nH]n2)c1 | 0.000327 |
| CN(C)[C@@H]1CCc2[nH]c3ccc(NC(=O)c4ccc(F)cc4)cc3c2C1 | 0.0103 |
| NS(=O)(=O)c1cc2c(cc1C(F)(F)F)NC(Cc1ccccc1)NS2(=O)=O (stereo not given) [Bendroflumethiazide] | -0.237 |

| SMILES | thermal shift ΔTm of Mpro [°C] |
| --- | --- |
| Cn1ncc2c3[nH]n(-c4ccc(F)cc4)c(=O)c3c(-c3cccc(C(F)(F)F)c3)nc21 [CTLA-4 inhibitor] | 0.151 |
| Cc1c(CC(=O)O)c2cccnc2n1Cc1ccc(S(C)(=O)=O)cc1C(F)(F)F [Fevipiprant] | 0.0122 |
| O=C(NCc1ccc(Oc2ccccc2)cc1)c1nc(-c2cc(Br)c(O)c(Br)c2)no1 | 1.06 |
| CCCCCCCCCCCCCCCC[N+](C)(C)C [Cetrimonium Bromide (CTAB)] | -0.836 |
| Cc1c(Cn2c(C)nc3c(C(=O)O)cc(N4CCOCC4)cc32)cccc1C(F)(F)F | -0.00622 |
| O=C(O)CCc1nc2ccccc2[nH]1 [Procodazole] | 0.00827 |
| Cn1c(SCC(=O)N2CCC[C@H]2C(=O)Nc2ccccc2-c2ccccc2)nc2ccccc21 | -0.033 |
| CC(=C(CCO)SSCC1CCCO1)N(C=O)Cc1cnc(C)nc1N (stereo in doubt) [Fursultiamine] | 0.246 |
| NCc1c[nH]c(=S)n1[C@H]1CCc2c(F)cc(F)cc2C1 [Nepicastat (SYN-117) HCl] | -0.281 |
| Cn1c(=O)c2c(ncn2CC(O)CO)n(C)c1=O (stereo not given) [Dyphylline] | 0.648 |
| CCCc1nc(C(C)(C)O)c(C(=O)OCc2oc(=O)oc2C)n1Cc1ccc(-c2ccccc2-c2nnn[nH]2)cc1 [Olmesartan Medoxomil] | -0.145 |
| COc1cccc2c1nc1ccccc1[n+]2C [1-Methoxy PMS] | -0.294 |
| NC(=O)c1cccnc1 [Nicotinamide (Vitamin B3)] | 0.0951 |
| OCc1ccc(-c2nn(Cc3ccccc3)c3ccccc23)o1 [Lificiguat] | -0.0467 |
| Nc1nccs1 [Aminothiazole] | -0.0695 |
| COc1ccc(Br)cc1NC(=O)Nc1cccc2c1ccn2Cc1ccnc(N)c1 | 0.0972 |
| O=[N+]([O-])c1ncc[nH]1 [Azomycin] | -0.0527 |
| c1ccc2c(-c3cnn4cc(-c5ccc(N6CCNCC6)cc5)cnc34)ccnc2c1 | 0.0685 |
| CC(C)(Oc1ccc(C2CC2(Cl)Cl)cc1)C(=O)O (stereo not given) [Ciprofibrate] | 0.317 |
| Cc1[nH]c(/C=C2\C(=O)Nc3ccc(S(=O)(=O)Cc4c(Cl)cccc4Cl)cc32)c(C)c1C(=O)N1CCC[C@@H]1CN1CCCC1 | 0.12 |
| COc1ccc(CNCc2cccc3ccccc23)cc1 | -0.0461 |
| NC(=O)[C@@H](CCC(F)(F)F)N(Cc1ccc(-c2ncon2)cc1F)S(=O)(=O)c1ccc(Cl)cc1 | -0.0854 |
| CC1=C(C(=O)O)N2C(=O)[C@@H](NC(=O)[C@H](N)c3ccc(O)cc3)[C@H]2SC1 [Cefadroxil] | 0.011 |
| CCCCCCCCCC(=O)O[C@H]1CC[C@H]2[C@@H]3CCC4=CC(=O)CC[C@@H]4[C@H]3CC[C@]12C [Nandrolone decanoate] | -0.0603 |
| N#CC(=C(/N)Sc1ccccc1N)/C(C#N)=C(\N)Sc1ccccc1N | 0.143 |
| NC(=O)CCCSc1nc(N)nc(-c2c(Cl)cc3c4c(cccc24)COC3)n1 | -0.233 |
| Cc1ccc(C)c(OCCn2cc(C(=O)O)c3ccccc32)c1 | 0.131 |

| SMILES | thermal shift ΔTm of Mpro [°C] |
| --- | --- |
| CC(C)c1onc(-c2c(Cl)cccc2Cl)c1COc1ccc(/C=C/c2cccc(C(=O)O)c2)c(Cl)c1 | -0.266 |
| CO[C@@H](C)Cn1c(=O)n(C)c2cnc3ccc(-c4cncc(C(C)(C)O)c4)cc3c21 | 0.0642 |
| Nc1nc(Nc2ccc(S(N)(=O)=O)cc2)nn1C(=O)c1c(F)cccc1F | 0.145 |
| CC(C)OC(=O)[C@H](C)N[P@](=O)(CO[C@H](C)Cn1cnc2c(N)ncnc21)Oc1ccccc1 [Tenofovir Alafenamide (GS-7340)] | -0.0575 |
| C=CCN1CCCC1CNC(=O)c1cc2nn[nH]c2cc1OC (stereo not given) [Alizapride HCl] | -0.0278 |
| CC(=O)O[C@H]1CC[C@@]2(C)C(=CC[C@@H]3[C@@H]2CC[C@]2(C)C(=O)CC[C@@H]32)C1 [Dehydroepiandrosterone acetate] | 0.0354 |
| CC1=C(C(=O)OCCN(Cc2ccccc2)c2ccccc2)C(c2cccc([N+](=O)[O-])c2)C(P2(=O)OCC(C)(C)CO2)=C(C)N1 (stereo not given) [Efonidipine] | -0.274 |
| CCCNS(=O)(=O)Nc1ncnc(OCCOc2ncc(Br)cn2)c1-c1ccc(Br)cc1 [Macitentan] | -0.219 |
| Oc1ccc(-c2cc(=S)ss2)cc1 [Desmethylanethol trithione] | 0.0489 |
| CCCOc1ccc(CCc2nc3cc(-c4c(C)noc4C)ccc3n2CCN2CCOCC2)cc1 [PF-CBP1 hydrochloride] | -0.0307 |
| CCOc1nc2cccc(C(=O)OC(C)OC(=O)OC3CCCCC3)c2n1Cc1ccc(-c2ccccc2-c2nn[nH]n2)cc1 (stereo not given) [Candesartan Cilexetil] | -0.704 |
| O=C(O)[C@@H](S)[C@@H](S)C(=O)O [Succimer] | 0.535 |
| CCCCNc1ncc(-c2ccc(CN3CCOCC3)cn2)c(NC2CCC(O)CC2)n1 (stereo not given) | -0.0604 |
| O=C(COCC(=O)N1CCN(C(c2ccccc2)c2ccccc2)CC1)Nc1ccc(Cl)cc1C(=O)O [TM5275 sodium] | -0.213 |
| Cc1ccc(NC(=S)NNc2c([N+](=O)[O-])cc(C(F)(F)F)cc2[N+](=O)[O-])cc1Cl | 0.263 |
| CCN1CCC[C@H]1CNC(=O)c1cc(S(N)(=O)=O)ccc1OC [Levosulpiride] | 0.187 |
| Nc1ccc(S(N)(=O)=O)cc1 [Sulfanilamide] | -0.199 |
| COc1ccc(/C=C/C(=O)C2(C(=O)/C=C/c3ccc(OC)c(OC)c3)CCCCC2)cc1OC | -0.246 |
| Cn1c(=O)c(F)c(Nc2ccc(I)cc2F)c2c(=O)n(C[C@@H](O)CO)cnc21 | -0.0113 |
| NCCNc1ccc(NCCN)c2c1C(=O)c1ccncc1C2=O [Pixantrone dimaleate] | 0.315 |
| CC(C)CNc1nc(N2CCN(CC3CCCOC3)CC2)ncc1C(=O)NCc1ccccc1 (stereo not given) | -0.319 |
| O=c1[nH]c(=O)n([C@H]2C[C@H](O)[C@@H](CO)O2)cc1/C=C/Br [Brivudine] | 0.0223 |
| COc1ccc(-c2cc3c(C)nc(N)nc3n([C@H]3CC[C@H](OCCO)CC3)c2=O)cn1 | -0.176 |
| CC1=NN(c2ccc(C(=O)O)cc2)C(=O)C1=Cc1ccc(-c2cc(C)c(C)cc2[N+](=O)[O-])o1 | 0.0905 |
| COc1cc[nH]c(=O)c1C#N [4-Methoxy-2-oxo-1,2-dihydro-pyridine-3-carbonitrile] | 0.305 |
| CCOC(=O)c1ccc(C#Cc2ccc3c(c2)C(C)(C)CCS3)nc1 [Tazarotene] | -0.313 |

Retrieved one by one from above:

| SMILES | thermal shift ΔTm of Mpro [°C] |
| --- | --- |
| COc1cc[nH]c(=O)c1C#N [4-Methoxy-2-oxo-1,2-dihydro-pyridine-3-carbonitrile] | 0.305 |
| CCOC(=O)c1ccc(C#Cc2ccc3c(c2)C(C)(C)CCS3)nc1 [Tazarotene] | -0.313 |
